Assay results as given in the supplement of paper PMC12067093, “Discovery and optimisation of a covalent ligand for TRIM25 and its application to targeted protein ubiquitination” (Chemical Science, 2025).
This is one part of the list.

Amino acid sequences for entries named in this document (tags omitted). A change or cut given only in a name is not applied to a line headed by its entry.
UniProt Q9H871: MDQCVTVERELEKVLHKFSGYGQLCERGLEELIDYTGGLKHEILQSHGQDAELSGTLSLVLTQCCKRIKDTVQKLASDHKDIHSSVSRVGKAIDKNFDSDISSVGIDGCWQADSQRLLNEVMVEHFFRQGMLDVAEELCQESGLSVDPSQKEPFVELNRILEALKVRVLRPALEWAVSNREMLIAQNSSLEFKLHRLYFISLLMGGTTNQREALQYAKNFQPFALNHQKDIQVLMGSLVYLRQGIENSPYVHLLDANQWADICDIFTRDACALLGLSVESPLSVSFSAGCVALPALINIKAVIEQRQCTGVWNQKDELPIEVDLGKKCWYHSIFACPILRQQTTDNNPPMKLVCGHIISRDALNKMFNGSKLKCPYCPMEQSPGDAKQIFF
UniProt Q13129: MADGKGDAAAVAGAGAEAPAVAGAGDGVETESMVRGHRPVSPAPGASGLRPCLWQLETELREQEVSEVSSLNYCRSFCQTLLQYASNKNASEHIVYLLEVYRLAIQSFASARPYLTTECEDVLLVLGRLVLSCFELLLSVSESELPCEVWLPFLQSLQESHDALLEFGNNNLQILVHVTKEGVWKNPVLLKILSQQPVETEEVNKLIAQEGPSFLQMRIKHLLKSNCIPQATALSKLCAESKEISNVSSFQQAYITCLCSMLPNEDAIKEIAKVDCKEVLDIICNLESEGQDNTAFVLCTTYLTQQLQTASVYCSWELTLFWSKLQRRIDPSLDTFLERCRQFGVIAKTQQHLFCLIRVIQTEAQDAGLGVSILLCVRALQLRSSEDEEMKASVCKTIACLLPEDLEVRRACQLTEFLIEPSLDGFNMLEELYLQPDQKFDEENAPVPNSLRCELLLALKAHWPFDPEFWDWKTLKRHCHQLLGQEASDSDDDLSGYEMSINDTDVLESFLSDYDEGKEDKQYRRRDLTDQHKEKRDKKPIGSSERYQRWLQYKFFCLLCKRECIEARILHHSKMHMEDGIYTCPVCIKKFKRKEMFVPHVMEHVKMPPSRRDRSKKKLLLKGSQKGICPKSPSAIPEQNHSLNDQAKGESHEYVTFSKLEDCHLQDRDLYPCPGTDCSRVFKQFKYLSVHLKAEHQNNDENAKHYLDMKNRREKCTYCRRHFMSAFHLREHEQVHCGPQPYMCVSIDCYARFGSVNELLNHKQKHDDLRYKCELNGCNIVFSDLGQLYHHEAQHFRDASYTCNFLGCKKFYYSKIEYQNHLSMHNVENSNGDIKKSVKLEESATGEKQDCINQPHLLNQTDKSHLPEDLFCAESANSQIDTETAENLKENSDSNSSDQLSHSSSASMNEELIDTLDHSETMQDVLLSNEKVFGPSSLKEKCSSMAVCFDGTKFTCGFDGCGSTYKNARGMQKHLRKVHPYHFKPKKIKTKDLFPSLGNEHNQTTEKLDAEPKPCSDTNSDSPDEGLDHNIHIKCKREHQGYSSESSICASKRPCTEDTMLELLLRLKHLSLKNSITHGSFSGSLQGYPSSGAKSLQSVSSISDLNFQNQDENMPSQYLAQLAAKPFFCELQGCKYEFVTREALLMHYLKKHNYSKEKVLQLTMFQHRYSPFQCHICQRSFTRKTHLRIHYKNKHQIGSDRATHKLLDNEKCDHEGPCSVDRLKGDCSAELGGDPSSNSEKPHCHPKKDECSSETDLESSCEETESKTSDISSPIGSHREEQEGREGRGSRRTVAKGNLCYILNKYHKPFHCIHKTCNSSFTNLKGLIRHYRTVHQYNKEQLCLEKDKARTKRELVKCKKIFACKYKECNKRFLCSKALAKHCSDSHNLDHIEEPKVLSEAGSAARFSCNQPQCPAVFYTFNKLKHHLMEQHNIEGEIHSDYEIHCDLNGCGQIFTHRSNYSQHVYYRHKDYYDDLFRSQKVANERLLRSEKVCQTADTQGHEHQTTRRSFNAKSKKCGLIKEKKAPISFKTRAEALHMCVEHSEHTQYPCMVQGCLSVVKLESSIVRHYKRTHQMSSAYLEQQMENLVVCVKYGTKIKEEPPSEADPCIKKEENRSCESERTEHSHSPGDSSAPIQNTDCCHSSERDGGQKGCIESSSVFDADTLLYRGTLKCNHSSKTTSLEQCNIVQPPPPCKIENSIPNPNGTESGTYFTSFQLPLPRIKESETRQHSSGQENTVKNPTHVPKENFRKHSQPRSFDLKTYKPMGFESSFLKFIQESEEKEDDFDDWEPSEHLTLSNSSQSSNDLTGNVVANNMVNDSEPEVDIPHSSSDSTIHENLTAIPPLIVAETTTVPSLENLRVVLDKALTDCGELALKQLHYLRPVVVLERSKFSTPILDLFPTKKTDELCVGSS
UniProt Q96D71: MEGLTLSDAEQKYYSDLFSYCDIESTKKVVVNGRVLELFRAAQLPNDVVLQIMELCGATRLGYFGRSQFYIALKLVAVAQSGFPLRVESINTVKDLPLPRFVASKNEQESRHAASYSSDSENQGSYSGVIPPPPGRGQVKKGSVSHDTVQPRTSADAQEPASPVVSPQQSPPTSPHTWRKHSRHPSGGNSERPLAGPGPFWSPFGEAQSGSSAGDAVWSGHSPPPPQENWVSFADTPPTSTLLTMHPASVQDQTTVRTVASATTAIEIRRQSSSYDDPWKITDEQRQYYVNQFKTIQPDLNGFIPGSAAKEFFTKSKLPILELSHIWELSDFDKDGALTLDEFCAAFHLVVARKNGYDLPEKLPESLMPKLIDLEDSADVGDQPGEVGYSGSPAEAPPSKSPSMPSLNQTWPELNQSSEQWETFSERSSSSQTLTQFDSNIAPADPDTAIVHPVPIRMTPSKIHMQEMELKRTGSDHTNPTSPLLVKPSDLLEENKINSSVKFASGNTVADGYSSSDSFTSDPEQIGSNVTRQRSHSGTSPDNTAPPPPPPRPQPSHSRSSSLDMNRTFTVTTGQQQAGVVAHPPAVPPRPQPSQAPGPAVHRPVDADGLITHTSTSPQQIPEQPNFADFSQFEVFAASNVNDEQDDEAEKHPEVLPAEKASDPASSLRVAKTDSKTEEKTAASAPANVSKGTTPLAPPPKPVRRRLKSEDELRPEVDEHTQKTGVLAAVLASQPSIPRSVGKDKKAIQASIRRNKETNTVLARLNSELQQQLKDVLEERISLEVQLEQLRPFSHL
UniProt O00584, whole entry, looked up: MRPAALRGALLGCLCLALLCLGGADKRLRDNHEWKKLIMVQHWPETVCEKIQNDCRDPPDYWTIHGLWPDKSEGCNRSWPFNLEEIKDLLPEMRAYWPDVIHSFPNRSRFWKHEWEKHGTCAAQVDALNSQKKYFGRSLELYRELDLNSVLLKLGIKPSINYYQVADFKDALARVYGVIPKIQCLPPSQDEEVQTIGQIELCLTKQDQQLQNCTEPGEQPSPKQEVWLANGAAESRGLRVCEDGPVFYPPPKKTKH
UniProt P51606: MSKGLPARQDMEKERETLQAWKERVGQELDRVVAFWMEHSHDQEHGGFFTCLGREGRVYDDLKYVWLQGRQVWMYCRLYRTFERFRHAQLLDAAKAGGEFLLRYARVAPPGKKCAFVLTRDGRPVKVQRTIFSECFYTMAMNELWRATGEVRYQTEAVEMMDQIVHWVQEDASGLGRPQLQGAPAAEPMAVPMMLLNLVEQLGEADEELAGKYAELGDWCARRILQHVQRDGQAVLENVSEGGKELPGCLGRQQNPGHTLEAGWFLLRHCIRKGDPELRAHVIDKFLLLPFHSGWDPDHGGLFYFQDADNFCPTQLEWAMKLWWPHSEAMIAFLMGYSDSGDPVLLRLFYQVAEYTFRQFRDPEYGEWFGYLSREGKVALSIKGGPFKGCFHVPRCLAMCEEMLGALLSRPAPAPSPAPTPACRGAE
UniProt Q04206, whole entry, looked up: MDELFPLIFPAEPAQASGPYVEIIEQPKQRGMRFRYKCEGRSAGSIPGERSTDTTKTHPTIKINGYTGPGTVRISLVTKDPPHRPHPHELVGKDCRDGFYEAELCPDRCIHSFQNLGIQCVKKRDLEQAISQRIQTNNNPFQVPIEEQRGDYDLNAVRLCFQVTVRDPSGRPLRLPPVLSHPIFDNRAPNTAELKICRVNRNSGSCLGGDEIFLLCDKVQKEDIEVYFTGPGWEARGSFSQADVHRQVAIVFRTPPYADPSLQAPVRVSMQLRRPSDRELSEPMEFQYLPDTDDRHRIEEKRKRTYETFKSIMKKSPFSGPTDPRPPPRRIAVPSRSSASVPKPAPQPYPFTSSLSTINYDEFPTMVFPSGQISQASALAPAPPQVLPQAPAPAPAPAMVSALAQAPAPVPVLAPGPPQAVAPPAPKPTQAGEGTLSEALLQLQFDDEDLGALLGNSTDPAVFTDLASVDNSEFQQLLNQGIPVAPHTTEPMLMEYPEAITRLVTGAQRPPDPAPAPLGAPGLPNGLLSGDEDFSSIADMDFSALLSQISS
UniProt Q9H6W3: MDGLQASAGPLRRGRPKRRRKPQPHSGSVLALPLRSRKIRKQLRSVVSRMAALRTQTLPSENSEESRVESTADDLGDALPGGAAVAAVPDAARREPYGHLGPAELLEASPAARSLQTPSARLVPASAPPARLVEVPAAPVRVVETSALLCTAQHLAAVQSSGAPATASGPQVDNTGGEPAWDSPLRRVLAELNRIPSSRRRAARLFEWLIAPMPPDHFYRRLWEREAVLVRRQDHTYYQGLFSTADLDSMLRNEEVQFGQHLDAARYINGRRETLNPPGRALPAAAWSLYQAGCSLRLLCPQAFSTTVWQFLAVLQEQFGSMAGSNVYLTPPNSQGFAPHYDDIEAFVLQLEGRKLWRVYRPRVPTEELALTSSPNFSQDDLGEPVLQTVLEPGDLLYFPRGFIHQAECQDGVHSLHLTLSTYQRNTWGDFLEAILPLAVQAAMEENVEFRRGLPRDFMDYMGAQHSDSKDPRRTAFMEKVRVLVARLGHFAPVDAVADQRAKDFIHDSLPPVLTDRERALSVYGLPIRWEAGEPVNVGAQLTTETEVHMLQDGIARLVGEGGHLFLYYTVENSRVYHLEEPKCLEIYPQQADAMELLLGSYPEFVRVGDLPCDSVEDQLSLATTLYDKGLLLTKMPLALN
UniProt Q6PCD5: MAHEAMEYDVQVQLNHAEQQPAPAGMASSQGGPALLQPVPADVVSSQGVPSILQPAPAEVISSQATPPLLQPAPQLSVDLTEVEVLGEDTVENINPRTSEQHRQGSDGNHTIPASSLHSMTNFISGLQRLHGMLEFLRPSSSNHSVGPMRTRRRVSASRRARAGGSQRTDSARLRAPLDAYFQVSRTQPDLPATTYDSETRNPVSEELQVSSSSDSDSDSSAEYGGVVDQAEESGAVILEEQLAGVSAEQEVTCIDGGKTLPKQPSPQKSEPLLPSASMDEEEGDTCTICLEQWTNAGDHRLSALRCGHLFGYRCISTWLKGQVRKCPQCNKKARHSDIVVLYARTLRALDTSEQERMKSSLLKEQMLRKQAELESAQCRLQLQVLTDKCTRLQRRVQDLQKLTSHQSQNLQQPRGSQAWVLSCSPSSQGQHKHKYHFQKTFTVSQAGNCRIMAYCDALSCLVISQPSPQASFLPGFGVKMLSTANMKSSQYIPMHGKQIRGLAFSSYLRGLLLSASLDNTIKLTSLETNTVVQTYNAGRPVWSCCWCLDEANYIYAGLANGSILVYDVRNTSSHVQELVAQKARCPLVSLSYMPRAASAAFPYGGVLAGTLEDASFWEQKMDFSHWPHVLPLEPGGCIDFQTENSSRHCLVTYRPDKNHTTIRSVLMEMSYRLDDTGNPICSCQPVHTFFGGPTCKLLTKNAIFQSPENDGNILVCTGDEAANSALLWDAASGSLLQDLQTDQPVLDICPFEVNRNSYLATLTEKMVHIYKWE
UniProt Q05823: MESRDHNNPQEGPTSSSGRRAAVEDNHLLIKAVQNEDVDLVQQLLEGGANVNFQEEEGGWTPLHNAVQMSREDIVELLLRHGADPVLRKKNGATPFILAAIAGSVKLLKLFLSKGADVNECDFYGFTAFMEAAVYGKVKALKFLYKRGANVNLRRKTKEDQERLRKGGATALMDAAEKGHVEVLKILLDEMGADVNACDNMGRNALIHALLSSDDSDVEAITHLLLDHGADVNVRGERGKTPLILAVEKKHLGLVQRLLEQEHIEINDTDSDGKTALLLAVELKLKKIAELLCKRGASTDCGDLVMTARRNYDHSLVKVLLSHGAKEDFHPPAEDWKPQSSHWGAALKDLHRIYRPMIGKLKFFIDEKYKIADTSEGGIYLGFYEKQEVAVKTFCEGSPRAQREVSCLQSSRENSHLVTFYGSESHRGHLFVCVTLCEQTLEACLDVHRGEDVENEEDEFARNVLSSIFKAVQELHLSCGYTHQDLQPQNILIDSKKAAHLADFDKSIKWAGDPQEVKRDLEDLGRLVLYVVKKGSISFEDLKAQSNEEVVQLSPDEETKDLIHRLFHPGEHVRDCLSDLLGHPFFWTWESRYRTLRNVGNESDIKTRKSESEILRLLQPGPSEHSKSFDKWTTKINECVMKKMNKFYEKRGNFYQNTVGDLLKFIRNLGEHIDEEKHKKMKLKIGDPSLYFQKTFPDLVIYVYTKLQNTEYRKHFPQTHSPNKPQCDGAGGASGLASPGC

Compound: CC1Cc2ccccc2N1C(=O)C1CCCN(C1)C(=O)CCl (mixture of isomers) [TRIM25 ligand 11 (diastereomer mixture)]
Test: probe-labelled cysteine peptide fold change vs DMSO (competition) (log2 fold change); higher = less target engagement (more negative = stronger competition)
Conditions: THP-1, incubation time: 4 h
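Note: competitive chemoproteomic profiling in live THP-1 cells with an iodoacetamide desthiobiotin (IA-DTB) probe, comparing probe-labelled peptide intensities in compound-treated cells against DMSO-treated controls.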

Target | probe-labelled cysteine peptide fold change (10 µM) | probe-labelled cysteine peptide fold change (50 µM)
RMND5A_Q9H871_328_CWYHSIFACPILR (UniProt Q9H871) | -0.0773 | 0.162
RLF_Q13129_557_FFCLLCK (UniProt Q13129) | -0.00387 | 0.168
REXO4_Q9GZR2_382_ILGLQVQQAEHCSIQDAQAAMR (UniProt Q9GZR2) | 0.098 | -0.355
RECQL5_O94762_188_LGHAPCVALTATATPQVQEDVFAALHLK (UniProt O94762) | -0.174 | -0.156
REPS1_Q96D71_56_AAQLPNDVVLQIMELCGATR (UniProt Q96D71) | 0.0646 | 0.361
RMND5A_Q9H871_109_NFDSDISSVGIDGCWQADSQR (UniProt Q9H871) | 0.0243 | 0.0744
RNASET2_O00584_241_VCEDGPVFYPPPKK (UniProt O00584) | -0.14 | -0.281
RENBP_P51606_51_VVAFWMEHSHDQEHGGFFTCLGR (UniProt P51606) | 0.0801 | -0.12
RECQL_P46063_471_VLMAQHFDEVWNSEACNK (UniProt P46063) | 0.0846 | -0.0567
RGN_Q15493_218_LWVACYNGGR (UniProt Q15493) | 0.478 | 0.327
REEP5_Q00765_18_NCMTDLLAK (UniProt Q00765) | -0.0793 | -0.0586
RFC4_P35249_48_CVDEVAFQEEVVAVLK (UniProt P35249) | 0.188 | -0.0734
RLF_Q13129_1300_GNLCYILNK (UniProt Q13129) | -0.0662 | -0.126
RHOC_P08134_159_ISAFGYLECSAK (UniProt P08134) | -0.0532 | 0.00186
REPIN1_Q9BWE0_269_VHTGERPHQCPECGKR (UniProt Q9BWE0) | -0.0177 | -0.0657
RHOT2_Q8IXI1_389_SCLGHLGYLGYPTLCEQDQAHAITVTR (UniProt Q8IXI1) | 0.078 | -0.0993
RECQL4_O94761_897_VCMGHER (UniProt O94761) | -0.0367 | -0.142
RELA_Q04206_105_DGFYEAELCPDR (UniProt Q04206) | -0.0141 | -0.143
RDH11_Q8TC12_133_HLHVLINNAGVMMCPYSK (UniProt Q8TC12) | -0.183 | -0.173
REPS1_Q96D71_344_DGALTLDEFCAAFHLVVAR (UniProt Q96D71) | 0.0481 | 0.109
RLF_Q13129_584+587_MHMEDGIYTCPVCIK (UniProt Q13129) | 0.00429 | -0.113

Target | probe-labelled cysteine peptide fold change (10 µM) | probe-labelled cysteine peptide fold change (50 µM)
RHOT1_Q8IXI2_322_HDLDRDCALSPDELK (UniProt Q8IXI2) | 0.353 | 0.271
RLF_Q13129_587_MHMEDGIYTCPVCIK (UniProt Q13129) | -0.0254 | -0.0896
RLF_Q13129_1494_VCQTADTQGHEHQTTR (UniProt Q13129) | 0.0353 | -0.00207
RETSAT_Q6NUM9_547_LHPCVMASLR (UniProt Q6NUM9) | -0.202 | -0.152
RIOX1_Q9H6W3_294_ALPAAAWSLYQAGCSLR (UniProt Q9H6W3) | 0.132 | 0.139
RECQL_P46063_223+224_IAVDEVHCCSQWGHDFRPDYK (UniProt P46063) | 0.0483 | 0.0373
RFFL_Q8WZ73_123_DLRDYLSLHDISTEMCR (UniProt Q8WZ73) | -0.0342 | -0.0655
RELA_Q04206_105_DCRDGFYEAELCPDR (UniProt Q04206) | -0.206 | -0.178
RNASET2_O00584_48_LIMVQHWPETVCEK (UniProt O00584) | -0.173 | -0.327
RETSAT_Q6NUM9_370_CLPGVK (UniProt Q6NUM9) | -0.0713 | 0.0318
RENBP_P51606_76_QVWMYCR (UniProt P51606) | 0.0147 | 0.192
RIOX1_Q9H6W3_409_GFIHQAECQDGVHSLHLTLSTYQR (UniProt Q9H6W3) | 0.122 | -0.033
RIOX1_Q9H6W3_584_CLEIYPQQADAMELLLGSYPEFVR (UniProt Q9H6W3) | 0.0963 | 0.198
RNASEH2A_O75792_29_EPCVLGVDEAGR (UniProt O75792) | -0.197 | -0.0543
RFWD3_Q6PCD5_315_CISTWLK (UniProt Q6PCD5) | -0.0654 | -0.0462
RECQL_P46063_321_GQSGIIYCFSQK (UniProt P46063) | 0.0322 | 0.131
RNASEL_Q05823_198_ILLDEMGADVNACDNMGR (UniProt Q05823) | -0.0268 | -0.0752
RIF1_Q5UIP0_1155_SSLSNNECGSLDK (UniProt Q5UIP0) | -0.092 | -0.266
RNASEL_Q05823_576_DCLSDLLGHPFFWTWESR (UniProt Q05823) | 0.115 | 0.179
RFWD3_Q6PCD5_379_QAELESAQCR (UniProt Q6PCD5) | 0.0654 | -0.0528
